The results in this text go back to publication PMC6825175.

Amino acid sequences for entries named in this document (tags omitted). Residues count along the entry.
UniProt P09055, residues 21-798: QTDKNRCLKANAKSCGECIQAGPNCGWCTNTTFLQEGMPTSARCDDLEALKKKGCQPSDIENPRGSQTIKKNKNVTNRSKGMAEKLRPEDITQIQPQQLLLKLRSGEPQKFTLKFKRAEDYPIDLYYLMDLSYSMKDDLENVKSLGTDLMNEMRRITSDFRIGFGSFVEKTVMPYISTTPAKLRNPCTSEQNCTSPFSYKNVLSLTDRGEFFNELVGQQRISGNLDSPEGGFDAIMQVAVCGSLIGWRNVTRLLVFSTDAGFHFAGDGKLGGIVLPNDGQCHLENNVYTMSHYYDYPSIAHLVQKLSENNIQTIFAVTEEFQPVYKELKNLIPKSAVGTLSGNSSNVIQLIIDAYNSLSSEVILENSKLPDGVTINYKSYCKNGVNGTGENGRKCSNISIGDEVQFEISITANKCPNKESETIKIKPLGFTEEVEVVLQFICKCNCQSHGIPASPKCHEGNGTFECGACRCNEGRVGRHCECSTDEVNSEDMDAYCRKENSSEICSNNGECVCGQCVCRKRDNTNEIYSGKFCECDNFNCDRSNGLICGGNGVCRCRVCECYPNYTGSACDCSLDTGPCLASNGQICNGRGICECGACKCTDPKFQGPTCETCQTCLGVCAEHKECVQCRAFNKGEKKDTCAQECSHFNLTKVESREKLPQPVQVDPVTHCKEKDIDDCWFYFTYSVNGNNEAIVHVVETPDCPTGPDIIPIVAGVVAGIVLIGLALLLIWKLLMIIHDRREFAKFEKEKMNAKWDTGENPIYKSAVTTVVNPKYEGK

These are yes or no findings as the source states them, for the method shown. Binding seen in cells or lysates may run through a third protein. Some results given as binding are weak or reduced against the parent protein; the word gives no strength.

The assay addresses β1 integrin (mouse (endogenous in murine colon)) (UniProt P09055). As to the kind of experiment: proximity ligation; in situ PLA (DuoLink) on frozen murine colon sections fixed in 4% paraformaldehyde, permeabilised with 0.5% Triton X-100; anti-CD47 antibody with anti-goat plus probe, anti-integrin β1 antibody with probemaker minus; signal when the two proteins are within 40 nm; Cd47-/- colon as negative control.

B1: CD47 (protein, UniProt Q61735 19-303)
chain: QLLFSNVNSIEFTSCNETVVIPCIVRNVEAQSTEEMFVKWKLNKSYIFIYDGNKNSTTTDQNFTSAKISVSDLINGIASLKMDKRDAMVGNYTCEVTELSREGKTVIELKNRTVSWFSPNEKILIVIFPILAILLFWGKFGILTLKYKSSHTNKRIILLLVAGLVLTVIVVVGAILLIPGEKPVKNASGLGLIVISTGILILLQYNVFMTAFGMTSFTIAILITQVLGYVLALVGLCLCIMACEPVHGPLLISGLGIIALAELLGLVYMKFVASNQRTIQPPRNR
With B1, the binding entry is on record as “binds”.
